Measurements reported in PubChem BioAssay AID652243 (Drosophila RNAi Screening Center, 2013).

Test: 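Fly regulators of androgen-dependent reporter output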 (primary screen)
Cells: Drosophila S2R+ cells
Reagents: long dsRNA against Drosophila genes
Time to read-out: 72 h (48 h, then 24 h hormone)
Treatment: synthetic androgen R1881 at 10 nM for 24 h
Measured: 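Per-well raw luminescence of the androgen-driven firefly reporter and of the Renilla control, two replicates each, without normalisation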
Scale: firefly reporter light: higher = more light from androgen-responsive reporter; Renilla control light: higher = more constitutive control signal (cell number, transfection)
Active means: 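Hit when the log firefly-to-Renilla ratio dropped or increased by a fixed fold versus the mean of GFP or LacZ controls across duplicate plates; lowering cut given as 1.5 and as 3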
Meaning of the calls: active = hit: reporter lowered or raised; inactive = no hit
The deposit covers about 24,000 reagents; this is an unselected part of those that have a named target and a result. In the full data, 246 (1%) got an active call. 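Plates not normalised; calls are printed but the firefly/Renilla ratio behind them is not deposited; fold cut for lowering reported inconsistently.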 Raw values vary from plate to plate and are shown uncorrected. The numbers tell different reagents against one gene apart. Names joined by + are all predicted targets of the reagent. Reagent sequences are not shown. Not given: the amount of reagent.

Gene	reagent no.	firefly reporter light, replicate 1	firefly reporter light, replicate 2	Renilla control light, replicate 1	Renilla control light, replicate 2	activity call
CG17377	1	4.57e5	4.07e5	3.17e6	2.61e6	inactive
CG17377	2	5.17e5	4.87e5	1.36e6	1.85e6	inactive
CG17377	3	3.65e5	3.38e5	2.38e6	2.88e6	inactive
CG17377	4	4.22e5	4.19e5	8.88e5	9.63e5	inactive
RpL4 (Ribosomal protein L4)	1	41769	47080	2.99e5	3.05e5	inactive
RpL4 (Ribosomal protein L4)	2	2.50e5	1.86e5	1.15e6	3.11e5	inactive
CG31869	1	2.68e5	2.13e5	2.53e6	1.93e6	inactive
CG31869	2	1.67e5	1.67e5	1.76e6	1.86e6	inactive
EMC6 (ER membrane protein complex subunit 6)	1	1.79e5	2.10e5	2.24e6	2.77e6	inactive
CG13218	1	2.42e5	1.89e5	1.79e6	1.66e6	inactive
CG13218	2	3.30e5	1.67e5	1.10e6	7.15e5	inactive
CG4830	1	1.25e5	1.87e5	2.33e6	2.06e6	inactive
CG10257	1	1.39e5	1.11e5	1.65e6	1.65e6	inactive
mthl3 + mthl4	1	2.38e5	2.28e5	6.18e5	4.75e5	inactive
CG14718	1	53647	1.15e5	6.27e5	8.83e5	inactive
arm (armadillo)	1	1.28e5	1.15e5	7.07e5	6.78e5	inactive
arm (armadillo)	2	5.70e5	6.32e5	1.71e6	1.54e6	inactive
Patronin	1	55094	63914	8.91e5	8.91e5	inactive
Patronin	2	67681	92198	1.24e6	1.24e6	inactive
Patronin	3	71297	64135	1.16e6	1.16e6	inactive
CG11777	1	3.06e5	2.46e5	1.69e6	1.83e6	inactive
CG11777	2	2.84e5	2.84e5	6.43e5	3.76e5	inactive
Galphas (G protein alpha subunit s)	1	1.33e6	5.03e5	2.20e6	1.29e6	inactive
Cyt-b5-r (Cytochrome b5-related)	1	1.27e5	1.54e5	1.73e6	1.88e6	inactive
CG3860	1	1.30e6	5.10e5	1.71e6	9.11e5	inactive
Pif2 (PFTAIRE-interacting factor 2)	1	96828	1.06e5	1.66e6	1.70e6	inactive
Pif2 (PFTAIRE-interacting factor 2)	2	2.52e5	2.47e5	7.41e5	8.34e5	inactive
Sox15 (Sox box protein 15)	1	38187	69150	7.77e5	7.77e5	inactive
Sox15 (Sox box protein 15)	2	3.13e5	6.00e5	9.94e5	1.34e6	inactive
CG30075	1	1.10e5	1.11e5	3.12e5	3.57e5	inactive
Nhe1 (Na[+]/H[+] hydrogen exchanger 1)	1	1.18e6	1.12e6	4.87e6	2.99e6	inactive
CG31445	1	1.42e5	1.36e5	9.09e5	6.08e5	inactive
CG31445	2	4.47e5	5.31e5	1.42e6	1.46e6	inactive
dmpd (dampened)	1	1.16e6	4.23e5	2.03e6	9.48e5	inactive
CG15708	1	56622	1.01e5	1.53e6	1.53e6	inactive
CG30379	1	1.35e5	1.57e5	4.47e5	4.81e5	inactive
CG2256	1	3.89e5	4.30e5	2.79e6	3.43e6	inactive
CG2256	2	5.29e5	4.58e5	1.82e6	1.56e6	inactive
CG43373 + CG42514	1	2.54e5	3.21e5	6.06e5	6.61e5	inactive
phtm (phantom)	1	2.57e5	1.05e5	1.10e6	3.06e5	inactive
phtm (phantom)	2	3.36e5	3.79e5	8.11e5	3.88e5	inactive

Limited to “Renilla control light, replicate 1”, for 4 of the entries above:
CG31869 #2	1.76e6
EMC6 (ER membrane protein complex subunit 6)	2.24e6
CG13218 #1	1.79e6
CG13218 #2	1.10e6
